Literature values as cited in patent publication US20250027956A1, “Improved Gamma-Secretase Inhibitor Screening Assays” (VIB VZW, priority 2021, published 2025).
At least one compound was matched to its structure with a doubt left.

Test system: NPC disease models
Conditions: cited from earlier work

Nc1cc(F)ccc1NC(=O)c1ccc(CNC(=O)/C=C/c2cccnc2)cc1 [Chidamide]
cholesterol accumulation: efficiently correct cholesterol accumulation
